This data set has as its system non-treatment-seeking individuals with AUD. Kind of data set: Phase 1b study: stress reactivity assessment (SR). To be noted: 50 mg BID. It counts as in vivo, human. An excerpt: Personal information collected at the time of admission (day 1) to the CRTC was used to generate personalized scripts of neutral and stressful conditions. Participants were asked to identify a recent stressful experience and to rate them on a 0 to 10 Likert scale, where a rating of 10 is considered to be the most stressful experience. Only stressful events rated≥8 were used in script development. Data on physical symptoms associated with the stressful and neutral events were also collected for script development.
During the study, each exposure consisted of 5-minute tape-recorded scripts recounting the recent stressful (or neutral) events in the participants' lives, including cognitions and physical feelings. […]
The following measures of mood, urge to drink, and physiological reactivity were administered at baseline and post-imagery for both the stress and neutral conditions: (1) The Profile of Mood States, Short Version (POMS) collected data on (a) positive and negative mood; (2) The Alcohol Urge Questionnaire (AUQ) measured subjective levels of alcohol cravings at the present moment (i.e., following stress imagery); (3) Cortisol levels were assessed by collecting saliva samples and heart rate and blood pressure were measured using a Dynamap Adult Vital Signs Monitor. […]

Each structure is given as a SMILES string.

Turning to `CC(C)C(=O)c1c(C(C)C)nn2ccccc12` [ibudilast, Ibudilast], the “cortisol level vs. placebo” value (p=0.07, FIG. 7) is reported as “modest increase”. Further, where the note is “saliva samples”, the “cortisol reactivity to the stressor” value is “did not affect”.

These data come from patent publication US20190151294A1, “TREATMENT OF ALCOHOLISM AND DEPRESSION AND/OR DYSPHORIC MOOD USING IBUDILAST” (MEDICINOVA, INC., priority 2016, published 2019).
